Results published in publication PMC8429893, “CTP regulates membrane-binding activity of the nucleoid occlusion protein Noc” (Molecular Cell, 2021).

Target: T1, Noc (Bacillus subtilis) (UniProt P37524)
T1 sequence (looked up, limits assumed): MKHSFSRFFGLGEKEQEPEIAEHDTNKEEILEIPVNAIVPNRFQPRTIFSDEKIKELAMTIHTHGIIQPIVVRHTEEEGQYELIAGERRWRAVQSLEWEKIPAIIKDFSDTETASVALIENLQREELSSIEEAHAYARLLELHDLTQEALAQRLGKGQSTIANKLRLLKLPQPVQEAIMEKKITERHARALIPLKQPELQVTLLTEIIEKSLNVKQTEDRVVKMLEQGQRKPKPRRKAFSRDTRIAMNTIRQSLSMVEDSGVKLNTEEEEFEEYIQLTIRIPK
Assay: BLI
Details: no nucleotide, nucleation only; BLI: 100 mM Tris-HCl pH 8.0, 150 mM NaCl, 1 mM MgCl2, 0.005% Tween 20, 22 C; 1 uM Noc dimer +/- 1 mM NTP; recombinant protein; protein details: C-terminal His6; label: biotin at M13F end; letters put together from the description

Question: Does “CGCCAGGGTTTTCCCAGTCACGACGTTGTAAAACGACGGCCAGAATTCGCAACGTGTATTTCCCGGGAAATAGCCTTGAACTGATAACGACTCTATCATTGATAGAGTGTTCTCTCCACGG / GATCCCGTGGAGAGAACACTCTATCAATGATAGAGTCGTTATCAGTTCAAGGCTATTTCCCGGGAAATACACGTTGCGAATTCTGGCCGTCGTTTTACAACGTCGTGACTGGGAAAACCCTGGCG [170 bp NBS DNA, BamHI-cut (open)]” bind?
Answer: binds

The exact form of at least one protein or probe is not confirmed. At least one verdict rests on a figure or table, not on a statement of the authors. Protein sequences can lack the tags named with them.
